The record followed here is PubChem BioAssay AID1458 (National Center for Advancing Translational Sciences (NCATS), 2008).

The campaign covered roughly 210,000 compounds. About 5,900 (2.8%) were called active. About 5% were inconclusive and are not listed. The call rests on the fitted dose curve; in most records, active means well fitted activation curve with a large enough effect; inconclusive means small, poorly fitted or top-dose-only effect; inactive means no such curve, though single readings can be large or run the other way. The list shows a part of the results, in another mix than the full data. Entries without a call were filed so in the source.
Potency means the concentration at half of the fitted maximal effect.

This test is described as follows: qHTS Assay for Enhancers of SMN2 Splice Variant Expression. Further: nearly all actives have a fitted effect of over 55% in size. On activity change, positive = activation: % of control where 0% means no effect. The settings on record: HEK293 SMN2-luciferase splicing reporter, luminescence, 30-36 h; activity change, positive = activation: at 46.1 µM (top of the series) unless noted. The procedure, abridged:
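HEK293 cells carry an SMN2 minigene-luciferase reporter in which exon 7 inclusion puts luciferase in frame. Cells were seeded at 2000 cells/well, attached for 10-12 hours, then exposed to compounds for 30-36 hours at 37C before ONE-Glo luminescence.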
Take `O=C(N/N=C/c1ccc[nH]1)c1cc(-c2ccc(Cl)cc2)nc2ccccc12`: the “activity change, positive = activation” value was inactive: -33.1%.

For `O=C(Nc1ccc(Br)cc1)c1ccccc1CC[N+](=O)[O-]`, the activity change, positive = activation turned out to be 38.7%.

In the case of `COc1ccccc1CNc1nc2nc(C)cc(=O)n2[nH]1`, the activity change, positive = activation came out at 32.4%.

Take `Cn1cnnc1SCC(=O)Nc1sccc1C#N`: the activity change, positive = activation came to 44.2%.

Take `CCCc1nc2ccccc2n1Cc1ccccc1OC`: the “activity change, positive = activation” value is inactive: -46.7%.

As for `O=C(N/N=C/c1sc2ccccc2c1O)c1cccc2ccccc12`, the “activity change, positive = activation” value is inactive: -91.6%.

As for `CC1(C)CC(C)(O)P(=O)(c2ccccc2)O1` (centres undefined), the activity change, positive = activation came to 44.6%.

As for `N#Cc1c(C(F)(F)F)cc(-c2ccccc2)nc1SCC(=O)Nc1sc2c(c1C#N)CCC2`, the activity change, positive = activation was -11.8%.

Turning to `COCC(C)N1C(=O)Cc2c1nc(N)c1c(N)nc(N3CCN(c4ccccc4F)CC3)c(C#N)c21` (centres undefined), the activity change, positive = activation is -77.2%.

`CC1=CN2C(=N)/C(=C/c3cn(CCCOc4ccccc4C)c4ccccc34)C(=O)N=C2S1`: the “activity change, positive = activation” value was inactive: -48.4%.

For `COc1ccc2c(c1)c1c(c(=O)n(-c3cccc(C)c3)c(=O)n1CC(=O)Nc1c(C)cc(C)cc1C)n2C`, the activity change, positive = activation worked out at 34.1%.

For the compound `CC(C)CN(CCCNC(=O)CN1C(=O)COc2ccc(S(=O)(=O)N3CCCCCC3)cc21)CC(C)C`, the activity change, positive = activation was 35.8%.

For the compound `Cc1cccc[n+]1CCCCCCCCCC[n+]1ccccc1C`, the “activity change, positive = activation” value is inactive: -30.9%.

With `Cc1c(NC(=O)c2cc(-c3cccc(Cl)c3)on2)c(=O)n(-c2ccccc2)n1C`, the activity change, positive = activation amounted to 35.6%.

In the case of `CCOc1cc(N(CC)CC)ccc1/C=C(/C#N)c1nc2ccccc2[nH]1`, the “activity change, positive = activation” value was inactive: -46.7%.

With `COc1ccc(-c2[nH]c3ccccc3c2SCCNC(=O)c2ccccc2)cc1`, the “activity change, positive = activation” value was inactive: -49.2%.

For `CC1CC1C(=O)Nc1nc(-c2ccccc2)cs1` (centres undefined), the “activity change, positive = activation” value was inactive: -7.04%.

As for `Cc1ccc(C)c(-c2cc(C(=O)Nc3sc(C)c(C)c3C(N)=O)c3ccccc3n2)c1`, the “activity change, positive = activation” value is inactive: -81.5%.

For the compound `COc1ccc(S(=O)(=O)NNC(=O)c2ccccc2-n2cccc2)cc1`, the activity change, positive = activation is 30.9%.

On to `Cc1cccc(/C=C\c2nc3ccccc3c(=O)[nH]2)c1`, for which the Potency is active: 2.82 µM.

As for `CC(=O)c1c(C)[nH]c(C(=O)OCC(=O)Nc2cccc(S(=O)(=O)N3CCCC3)c2)c1C`, the “activity change, positive = activation” value is inactive: -66.2%.

For the compound `C/C(CC(=O)NCCCN1CCOCC1)=N\NC(=O)COc1cccc2ccccc12`, the activity change, positive = activation worked out at 1.01%.

For `CC(C)CC(c1nnnn1Cc1ccccc1)N1CCN(C(=O)c2ccco2)CC1` (centres undefined), the activity change, positive = activation was found to be 30.3%.

On to `COc1ccc(CN2CCN(C(=O)C3CC(=O)N(C4CCCCCC4)C3)CC2)c(OC)c1OC` (centres undefined), for which the activity change, positive = activation is -56.3%.

Consider `CCOC(=O)c1ccc(Nc2ccc([N+](=O)[O-])cn2)cc1`, for which the activity change, positive = activation came out at 33.5%.

`Cc1cccc(C)c1-n1cccc1/C=C1/C(=N)N2C(=NC1=O)SN=C2S(C)(=O)=O`: the “activity change, positive = activation” value was inactive: -37.4%.

For `O=c1n(Cc2ccc(Cl)cc2)c2sc3c(c2c2ncnn12)CCCC3`, the activity change, positive = activation is -33.1%.

On to `O=S(=O)(c1ccccc1)N1CCC[C@@]2(CCN(Cc3nccs3)C2)C1`, for which the “activity change, positive = activation” value was inactive: -62.5%.

With `COCCNC(=O)c1cc2oc3ccccc3c2n1C`, the activity change, positive = activation is 51.3%.

For the compound `O=C(Nc1cnc2ccccc2c1)c1cccnc1`, the Potency was active: 12.6 µM.

In the case of `Cc1cc(C)c2c(c1)c(C)cc1nnc(SCC(=O)NCc3ccco3)n12`, the activity change, positive = activation was 48.1%.

As to `CCCNC(=O)C(Sc1ccccc1)c1ccccc1` (centres undefined), the activity change, positive = activation is -18.3%.

With `COc1ccc2c(c1)Cc1sc(NC(C)=O)nc1-2`, the Potency was active: 5.62 µM.

On to `CCOc1ccccc1CNC(=O)C1CCN(c2nnc(-n3c(C)ccc3C)s2)CC1`, for which the activity change, positive = activation turned out to be 32.7%.

Take `COc1cccc2cc(-c3ccnc(N)n3)oc12`: the activity change, positive = activation was 134%.

As to `Cc1ccc(NC(=O)c2ccccc2)s1`, the Potency was active: 2 µM.

As for `COc1ccc(N=C2SC(CC(=O)Nc3ccccc3OC)C(=O)N2Cc2ccco2)cc1` (centres undefined), the activity change, positive = activation worked out at 34%.

For `Cc1ccc(NC(=O)CSc2ccc(-c3ccccn3)nn2)cc1`, the “activity change, positive = activation” value is inactive: -39.3%.

Regarding `O=C(c1ccco1)N1CCC(c2nc(-c3ccccc3Cl)no2)CC1`, the activity change, positive = activation is 31.4%.

Turning to `O=C(Nc1cccc([N+](=O)[O-])c1)c1ccc(CN2CCOCC2)cc1`, the activity change, positive = activation was -40%.

As for `O=C(/C=C/c1cccs1)Nc1nccs1`, the Potency was active: 12.6 µM.

On to `CCCn1nnnc1NCc1ccccc1OCc1ccc(F)cc1`, for which the activity change, positive = activation came to 33.6%.

`O=c1c(Br)c(N2CCCCC2)cnn1-c1ccccc1`: the activity change, positive = activation turned out to be 225%.

`O=C1N/C(=N\N=C\c2cccnc2)SC1Cc1ccc(SC(F)F)cc1` (centres undefined): the “activity change, positive = activation” value was inactive: -66.4%.

For the compound `N/C(=N\OC(=O)c1ccc(Br)o1)c1cccnc1`, the activity change, positive = activation was 33.4%.

As for `O=C(Nc1cccnc1)c1ccc(Cl)c(S(=O)(=O)N2CCc3ccccc32)c1`, the “activity change, positive = activation” value was inactive: -64.9%.

Consider `O=C(O)c1cccc(CSc2ncccn2)c1`, for which the activity change, positive = activation is 46.8%.

Regarding `CCOC(=O)N1CCN(CC(=O)Nc2c(C(=O)OC)[nH]c3ccc(Cl)cc23)CC1`, the “activity change, positive = activation” value is inactive: -46%.

`COc1ccc(S(=O)(=O)N2CCOCC2)cc1NC(=O)CN1CCC(Cc2ccccc2)CC1`: the activity change, positive = activation was -44.8%.

Regarding `Nc1ccccc1N=Cc1ccc(-c2cccc(Cl)c2)o1`, the activity change, positive = activation is -44.1%.

Turning to `CCCc1nnc(NC(=O)Nc2ccccc2Cl)s1`, the Potency is active: 15.8 µM.

Consider `O=C(/C(=C\c1ccccc1)c1nc2ccccc2[nH]1)c1ccc(Cl)cc1`, for which the “activity change, positive = activation” value is inactive: -83.6%.

Turning to `COc1ccc(C(O)c2nccc3cc(OC)c(OC)cc23)cc1OC` (centres undefined), the activity change, positive = activation is -82.1%.

`COc1ccc(-c2nsc3c(N4CCN(C(=O)c5ccco5)CC4)ncnc23)cc1`: the “activity change, positive = activation” value was inactive: -34.2%.
